Laboratory results published in patent US20100144755A1 (Glaxo Group Limited, priority 2006, published 2010).
Where a name gives a salt, the structure may show the parent alone. Some results were stated once for a whole list of compounds, not compound by compound.

Amino acid sequences for entries named in this document (tags omitted).
UniProt Q16539, whole entry: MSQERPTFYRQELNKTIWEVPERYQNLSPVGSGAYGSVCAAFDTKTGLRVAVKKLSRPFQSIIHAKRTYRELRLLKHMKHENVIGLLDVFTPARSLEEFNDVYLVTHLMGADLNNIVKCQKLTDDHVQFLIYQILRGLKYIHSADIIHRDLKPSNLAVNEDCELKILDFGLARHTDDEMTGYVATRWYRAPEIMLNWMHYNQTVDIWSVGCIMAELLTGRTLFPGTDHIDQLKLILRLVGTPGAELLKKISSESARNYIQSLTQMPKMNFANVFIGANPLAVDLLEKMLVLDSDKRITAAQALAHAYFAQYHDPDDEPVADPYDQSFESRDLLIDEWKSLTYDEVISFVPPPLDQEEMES

biological target: T1, Recombinant human p38α (Homo sapiens, UniProt Q16539); assay: Time-resolved fluorescence resonance energy transfer (TR-FRET) kinase assay (standard and low volume); format: biochemical; parameters: key: active: a pIC50 of greater than 4.6 up to about a pIC50 of greater than 10.0; details: MKK6-activated p38α 100 pM, GST-ATF2 substrate; result in words
T1 construct: His; made in house
Procedure: Time-Resolved Fluorescence Resonance Energy Transfer Linase Standard Assay
(§1) Recombinant human p38α was expressed as a His-tagged protein. To activate this protein, 3 μM unactivated p38α was incubated in 200 mM Hepes pH 7.4, 625 mM NaCl, 1 mM DTT with 27 nM active MKK6 (Upstate), 1 mM ATP and 10 mM MgCl2 The activity of the MKK6-activated p38α was assessed using a time-resolved fluorescence resonance energy transfer (TR-FRET) assay.
Biotinylated-GST-ATF2 (residues 19-96, 400 nM final), ATP ([…]) and MgCl2 (5 mM final) in assay buffer (40 mM HEPES pH 7.4, 1 mM DTT) were added to wells containing 1 ul of various concentrations of compound or DMSO vehicle (3% final) in NUNC 384 well black plate. The reaction was initiated by the addition of MKK6-activated p38 (100 pM final) to give a total volume of 30 ul. The reaction was incubated for 120 minutes at room temperature, then terminated by the addition of 15 μl of 100 mM EDTA pH 7.4. Detection reagent (15 μl) in buffer (100 mM HEPES pH 7.4, 150 mM NaCl, 0.1% w/v BSA, 1 mM DTT) containing antiphosphothreonine-ATF2-71 polyclonal antibody (Cell Signalling Technology, Beverly Mass., USA) labelled with W-1024 europium chelate (Wallac O Y, Turku, Finland), and APC-labelled streptavidin (Prozyme, San Leandro, Calif., USA) was added and the reaction was further incubated for 60 minutes at room temperature. The degree of phosphorylation of GST-ATF2 was measured using a Packard Discovery plate reader (Perkin-Elmer Life Sciences, Pangbourne, UK) as a ratio of specific 665 nm energy transfer signal to reference europium 620 nm signal.
Time-Resolved Fluorescence Resonance Energy Transfer Kinase Low Volume Assay
as §1, with “pH7.4,” for “pH 7.4,”
Biotinylated-GST-ATF2 (residues 19-96, 400 nM final), ATP (125 μM final) and MgCl2 (5 mM final) in assay buffer (40 mM HEPES pH 7.4, 1 mM DTT) were added to wells containing 0.1 μl of various concentrations of compound or DMSO vehicle (1.7% final) in Greiner low volume 384 well black plate. The reaction was initiated by the addition of MKK6-activated p38α (100 pM final) to give a total volume of 6 μl. The reaction was incubated for 120 minutes at room temperature, then terminated by the addition of 3 μl of detection reagent in buffer (100 mM HEPES pH 7.4, 150 mM NaCl, 0.1% w/v BSA, 1 mM DTT, 100 mM EDTA) containing antiphosphothreonine-ATF2-71 polyclonal antibody (Cell Signalling Technology, Beverly Mass., USA) labelled with W-1024 europium chelate (Wallac O Y, Turku, Finland), and APC-labelled streptavidin (Prozyme, San Leandro, Calif., USA). The reaction was further incubated for 60 minutes at room temperature. The degree of phosphorylation of GST-ATF2 was measured using a BMG Rubystar plate reader (BMG, UK) as a ratio of specific 665 nm energy transfer signal to reference europium 620 nm signal.
It is noted that there are two assay formats shown above for the Time-resolved fluorescence resonance energy transfer kinase assay. The only difference between these two assays is the volume used and the plate type. […] The results described herein may have been performed in either assay format and are not differentiated as to which.

SMILES | activity (pIC50) in TR-FRET p38α kinase assay
Cc1ccc(C(=O)O)cc1-c1nc(N2CCC(N3CCC(C)CC3)CC2)nc2c1ccc(=O)n2-c1c(F)cccc1F [163(b), 3-[8-(2,6-difluorophenyl)-2-(4-methyl-1,4′-bipiperidin-1′-yl)-7-oxo-7,8-dihydropyrido[2,3-d]pyrimidin-4-yl]-4-methylbenzoic acid] | active
CCN(CC)CCCNc1nc(-c2cc(C(=O)O)cc(F)c2C)c2ccc(=O)n(-c3c(F)cccc3F)c2n1 [179(b), 3-[2-{[3-(diethylamino)propyl]amino}-8-(2,6-difluorophenyl)-7-oxo-7,8-dihydropyrido[2,3-d]pyrimidin-4-yl]-5-fluoro-4-methylbenzoic acid trifluoroacetate] | active
CCCNC(=O)c1ccc(-c2nc(NCCCN(CC)CC)nc3c2ccc(=O)n3-c2c(F)cccc2F)cc1 [188(b), 4-[2-{[3-(diethylamino)propyl]amino}-8-(2,6-difluorophenyl)-7-oxo-7,8-dihydropyrido[2,3-d]pyrimidin-4-yl]-N-propylbenzamide] | active
CCN(CC)CCCNc1nc(-c2cccc(C(=O)O)c2)c2ccc(=O)n(-c3c(F)cccc3F)c2n1 [193(a), 3-[2-{[3-(diethylamino)propyl]amino}-8-(2,6-difluorophenyl)-7-oxo-7,8-dihydropyrido[2,3-d]pyrimidin-4-yl]benzoic acid] | active
Cc1ccc(NC(=O)c2cccs2)cc1-c1nc(NC2CC(C)(C)NC(C)(C)C2)nc2c1ccc(=O)n2-c1c(F)cccc1F [Example 9, N-(3-{8-(2,6-difluorophenyl)-7-oxo-2-[(2,2,6,6-tetramethyl-4-piperidinyl)amino]-7,8-dihydropyrido[2,3-d]pyrimidin-4-yl}-4-methylphenyl)-2-thiophenecarboxamide] | active
Cc1ccc(NC(=O)c2cccs2)cc1-c1nc(NCc2ncc[nH]2)nc2c1ccc(=O)n2-c1c(F)cccc1F [Example 10, N-(3-{8-(2,6-difluorophenyl)-2-[(1H-imidazol-2-ylmethyl)amino]-7-oxo-7,8-dihydropyrido[2,3-d]pyrimidin-4-yl}-4-methylphenyl)-2-thiophenecarboxamide] | active
Cc1ccc(NC(=O)c2ccc(Cl)nc2)cc1-c1nc(N2CCC(N)CC2)nc2c1ccc(=O)n2-c1c(F)cccc1F [Example 15, N-{3-[2-(4-amino-1-piperidinyl)-8-(2,6-difluorophenyl)-7-oxo-7,8-dihydropyrido[2,3-d]pyrimidin-4-yl]-4-methylphenyl}-6-chloro-3-pyridinecarboxamide] | active
CCCNC(=O)c1ccc(C)c(-c2nc(NCCN(C)C(=O)OC(C)(C)C)nc3c2ccc(=O)n3-c2c(F)cccc2F)c1 [Example 106, 1,1-dimethylethyl{2-[(8-(2,6-difluorophenyl)-4-{2-methyl-5-[(propylamino)carbonyl]phenyl}-7-oxo-7,8-dihydropyrido[2,3-d]pyrimidin-2-yl)amino]ethyl}methylcarbamate] | active
CCN(CC)CCCNc1nc(-c2cccc(C(=O)Nc3ccc(F)cc3)c2C)c2ccc(=O)n(-c3c(F)cccc3F)c2n1 [Example 152, 3-[2-{[3-(diethylamino)propyl]amino}-8-(2,6-difluorophenyl)-7-oxo-7,8-dihydropyrido[2,3-d]pyrimidin-4-yl]-N-(4-fluorophenyl)-2-methylbenzamide] | active
CCCNC(=O)c1cccc(-c2nc(NCCCN(CC)CC)nc3c2ccc(=O)n3-c2c(F)cccc2F)c1C [Example 153, 3-[2-{[3-(diethylamino)propyl]amino}-8-(2,6-difluorophenyl)-7-oxo-7,8-dihydropyrido[2,3-d]pyrimidin-4-yl]-2-methyl-N-propylbenzamide] | active
CCN(CC)CCCNc1nc(-c2cccc(C(=O)NCC(C)C)c2C)c2ccc(=O)n(-c3c(F)cccc3F)c2n1 [Example 154, 3-[2-{[3-(diethylamino)propyl]amino}-8-(2,6-difluorophenyl)-7-oxo-7,8-dihydropyrido[2,3-d]pyrimidin-4-yl]-2-methyl-N-(2-methylpropyl)benzamide] | active

tested on: TNF-stimulated IL8 production by human neutrophils; assay: TNF-stimulated IL-8 production from human neutrophils; format: cell-based; details: TNF 100 ng/ml, about 20 hrs, screened up to 100 nM; result in words;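 also: IL-8 in cell-free supernatant quantified by sandwich ELISA, inhibition calculated against a compound-free control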

SMILES | activity (IC50) against TNF-stimulated IL-8 production from human neutrophils
CCN(CC)CCCNc1nc(-c2cc(C(=O)N[C@H](C)c3ccccc3)ccc2C)c2ccc(=O)n(-c3c(F)cccc3F)c2n1 [Example 148, 3-[2-{[3-(diethylamino)propyl]amino}-8-(2,6-difluorophenyl)-7-oxo-7,8-dihydropyrido[2,3-d]pyrimidin-4-yl]-4-methyl-N-[(1R)-1-phenylethyl]benzamide] | active
CCN(CC)CCCNc1nc(-c2cc(C(=O)N[C@@H](C)c3ccccc3)ccc2C)c2ccc(=O)n(-c3c(F)cccc3F)c2n1 [Example 149, 3-[2-{[3-(diethylamino)propyl]amino}-8-(2,6-difluorophenyl)-7-oxo-7,8-dihydropyrido[2,3-d]pyrimidin-4-yl]-4-methyl-N-[(1S)-1-phenylethyl]benzamide] | active
CCN(CC)CCCNc1nc(-c2cc(C(=O)NCC(=O)NC)ccc2C)c2ccc(=O)n(-c3c(F)cccc3F)c2n1 [Example 158, 3-[2-{[3-(diethylamino)propyl]amino}-8-(2,6-difluorophenyl)-7-oxo-7,8-dihydropyrido[2,3-d]pyrimidin-4-yl]-4-methyl-N-[2-(methylamino)-2-oxoethyl]benzamide] | active
CCN(CC)CCCNc1nc(-c2cc(C(=O)Nc3cccnc3)ccc2C)c2ccc(=O)n(-c3c(F)cccc3F)c2n1 [Example 159, 3-[2-{[3-(diethylamino)propyl]amino}-8-(2,6-difluorophenyl)-7-oxo-7,8-dihydropyrido[2,3-d]pyrimidin-4-yl]-4-methyl-N-3-pyridinylbenzamide] | active
CCN(CC)CCCNc1nc(-c2cc(C(=O)Nc3ccc(F)cc3)ccc2C)c2ccc(=O)n(-c3c(F)cccc3F)c2n1 [Example 160, 3-[2-{[3-(diethylamino)propyl]amino}-8-(2,6-difluorophenyl)-7-oxo-7,8-dihydropyrido[2,3-d]pyrimidin-4-yl]-N-(4-fluorophenyl)-4-methylbenzamide] | active
CCC(C)NC(=O)c1ccc(C)c(-c2nc(NCCCN(CC)CC)nc3c2ccc(=O)n3-c2c(F)cccc2F)c1 (stereo not drawn) [Example 162, 3-[2-{[3-(diethylamino)propyl]amino}-8-(2,6-difluorophenyl)-7-oxo-7,8-dihydropyrido[2,3-d]pyrimidin-4-yl]-4-methyl-N-(1-methylpropyl)benzamide] | active

same assay, conditions: TNF 100 ng/ml, about 20 hrs; bounds reflect the top concentration screened; for 202(c) and 120 a range over multiple runs with ends given as 'greater than'

SMILES | IC50
CCN(CC)CCCNc1nc(-c2cc(C(=O)NCC(N)=O)ccc2C)c2ccc(=O)n(-c3c(F)cccc3F)c2n1 [Example 157, N-(2-amino-2-oxoethyl)-3-[2-{[3-(diethylamino)propyl]amino}-8-(2,6-difluorophenyl)-7-oxo-7,8-dihydropyrido[2,3-d]pyrimidin-4-yl]-4-methylbenzamide] | > 100 nM
